# These are yes or no findings as the source states them, for the method shown. In cells and extracts the contact can be indirect. Binding calls can cover weak binding; strength is not graded here. For some assays here: Tags and fused reporters may be left off the sequences shown.
# Amino acid sequences for entries named in this document (tags omitted). A change or cut given only in a name is not applied to a line headed by its entry.
# UniProt O02374: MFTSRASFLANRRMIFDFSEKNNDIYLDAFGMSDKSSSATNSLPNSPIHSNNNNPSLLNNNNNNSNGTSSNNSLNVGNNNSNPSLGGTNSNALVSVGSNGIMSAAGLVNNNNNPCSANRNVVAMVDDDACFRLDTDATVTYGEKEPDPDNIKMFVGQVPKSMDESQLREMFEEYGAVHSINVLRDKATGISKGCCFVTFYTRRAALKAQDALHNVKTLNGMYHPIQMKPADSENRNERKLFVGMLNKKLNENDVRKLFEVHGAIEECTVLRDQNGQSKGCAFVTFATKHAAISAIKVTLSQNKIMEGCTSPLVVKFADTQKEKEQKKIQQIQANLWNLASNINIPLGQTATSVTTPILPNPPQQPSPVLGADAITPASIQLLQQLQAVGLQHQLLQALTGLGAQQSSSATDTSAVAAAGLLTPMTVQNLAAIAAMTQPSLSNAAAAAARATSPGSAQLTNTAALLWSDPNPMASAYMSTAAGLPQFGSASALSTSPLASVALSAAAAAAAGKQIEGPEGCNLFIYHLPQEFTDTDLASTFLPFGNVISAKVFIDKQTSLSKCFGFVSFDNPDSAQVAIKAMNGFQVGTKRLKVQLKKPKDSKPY
# Assays:
# [1] = target: GST::Bru (full-length Bruno fused to GST) (Drosophila) (UniProt O02374); assay: pull-down; GST::Bru, GST::Cup or GST immobilized on Glutathione Sepharose 4B from E. coli extract and washed; ~100 ng N-terminally His6-tagged Bru protein in 80 μl binding buffer (50mM Tris-Cl pH7.5, 150mM NaCl, 10% glycerol, 1mM DTT, 0.1% IGEPAL-CA-630), 2–3 hr at room temperature; Western blot with anti-His antibody; both purified
# [2] = target: T1, GST::Cup577–947 (Drosophila) (UniProt Q9VMA3); assay: as above
# T1 sequence: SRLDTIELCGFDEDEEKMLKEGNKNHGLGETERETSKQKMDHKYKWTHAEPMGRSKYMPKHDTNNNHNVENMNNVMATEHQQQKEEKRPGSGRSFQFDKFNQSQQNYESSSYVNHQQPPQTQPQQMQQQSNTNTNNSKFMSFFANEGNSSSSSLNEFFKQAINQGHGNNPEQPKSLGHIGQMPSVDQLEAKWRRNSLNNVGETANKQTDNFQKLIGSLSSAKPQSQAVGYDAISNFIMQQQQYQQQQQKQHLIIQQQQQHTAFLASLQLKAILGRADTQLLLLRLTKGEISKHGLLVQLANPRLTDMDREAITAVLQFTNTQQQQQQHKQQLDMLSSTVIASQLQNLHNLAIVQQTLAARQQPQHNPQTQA
binding [1],binding [2],Substance
binds weakly,binds,His6::Bru S4E/S7E (from UniProt O02374)
no binding (tested: ~100 ng in 80 μl),binds weakly,His6::Bru S4E/S7E/T135E (from UniProt O02374)
binds,binds,His6::Bru S7E (from UniProt O02374)
binds,binds,His6::Bru S7E/T135E (from UniProt O02374)

# — article PMC4344327, “Region-Specific Activation of oskar mRNA Translation by Inhibition of Bruno-Mediated Repression” (PLoS Genetics, 2015)
